In the supplement of paper PMC10849652:
Some of the results follow.

Amino acid sequences for entries named in this document (tags omitted). A change or cut given only in a name is not applied to a line headed by its entry.
UniProt Q63HM1: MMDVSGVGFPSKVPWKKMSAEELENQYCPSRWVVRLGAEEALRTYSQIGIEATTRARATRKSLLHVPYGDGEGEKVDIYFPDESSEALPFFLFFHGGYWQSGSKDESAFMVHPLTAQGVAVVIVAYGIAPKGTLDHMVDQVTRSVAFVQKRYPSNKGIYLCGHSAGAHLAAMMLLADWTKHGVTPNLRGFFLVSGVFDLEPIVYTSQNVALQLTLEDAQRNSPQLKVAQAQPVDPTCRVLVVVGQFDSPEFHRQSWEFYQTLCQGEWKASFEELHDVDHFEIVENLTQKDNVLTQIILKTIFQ
UniProt Q86V24: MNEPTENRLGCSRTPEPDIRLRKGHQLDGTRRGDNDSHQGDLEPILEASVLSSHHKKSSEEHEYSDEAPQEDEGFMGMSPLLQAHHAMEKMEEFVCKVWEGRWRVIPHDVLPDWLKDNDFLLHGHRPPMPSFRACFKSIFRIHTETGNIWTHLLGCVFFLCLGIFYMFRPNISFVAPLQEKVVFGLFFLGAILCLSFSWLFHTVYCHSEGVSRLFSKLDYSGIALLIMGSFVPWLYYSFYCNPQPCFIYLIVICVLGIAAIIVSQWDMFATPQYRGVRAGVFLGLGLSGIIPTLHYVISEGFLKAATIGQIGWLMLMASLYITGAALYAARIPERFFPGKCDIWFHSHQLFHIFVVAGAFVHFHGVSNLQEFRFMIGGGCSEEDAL
UniProt Q9NZD4: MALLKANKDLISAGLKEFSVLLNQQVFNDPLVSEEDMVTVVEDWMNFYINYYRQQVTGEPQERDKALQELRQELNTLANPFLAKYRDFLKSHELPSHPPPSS
UniProt Q96Q42: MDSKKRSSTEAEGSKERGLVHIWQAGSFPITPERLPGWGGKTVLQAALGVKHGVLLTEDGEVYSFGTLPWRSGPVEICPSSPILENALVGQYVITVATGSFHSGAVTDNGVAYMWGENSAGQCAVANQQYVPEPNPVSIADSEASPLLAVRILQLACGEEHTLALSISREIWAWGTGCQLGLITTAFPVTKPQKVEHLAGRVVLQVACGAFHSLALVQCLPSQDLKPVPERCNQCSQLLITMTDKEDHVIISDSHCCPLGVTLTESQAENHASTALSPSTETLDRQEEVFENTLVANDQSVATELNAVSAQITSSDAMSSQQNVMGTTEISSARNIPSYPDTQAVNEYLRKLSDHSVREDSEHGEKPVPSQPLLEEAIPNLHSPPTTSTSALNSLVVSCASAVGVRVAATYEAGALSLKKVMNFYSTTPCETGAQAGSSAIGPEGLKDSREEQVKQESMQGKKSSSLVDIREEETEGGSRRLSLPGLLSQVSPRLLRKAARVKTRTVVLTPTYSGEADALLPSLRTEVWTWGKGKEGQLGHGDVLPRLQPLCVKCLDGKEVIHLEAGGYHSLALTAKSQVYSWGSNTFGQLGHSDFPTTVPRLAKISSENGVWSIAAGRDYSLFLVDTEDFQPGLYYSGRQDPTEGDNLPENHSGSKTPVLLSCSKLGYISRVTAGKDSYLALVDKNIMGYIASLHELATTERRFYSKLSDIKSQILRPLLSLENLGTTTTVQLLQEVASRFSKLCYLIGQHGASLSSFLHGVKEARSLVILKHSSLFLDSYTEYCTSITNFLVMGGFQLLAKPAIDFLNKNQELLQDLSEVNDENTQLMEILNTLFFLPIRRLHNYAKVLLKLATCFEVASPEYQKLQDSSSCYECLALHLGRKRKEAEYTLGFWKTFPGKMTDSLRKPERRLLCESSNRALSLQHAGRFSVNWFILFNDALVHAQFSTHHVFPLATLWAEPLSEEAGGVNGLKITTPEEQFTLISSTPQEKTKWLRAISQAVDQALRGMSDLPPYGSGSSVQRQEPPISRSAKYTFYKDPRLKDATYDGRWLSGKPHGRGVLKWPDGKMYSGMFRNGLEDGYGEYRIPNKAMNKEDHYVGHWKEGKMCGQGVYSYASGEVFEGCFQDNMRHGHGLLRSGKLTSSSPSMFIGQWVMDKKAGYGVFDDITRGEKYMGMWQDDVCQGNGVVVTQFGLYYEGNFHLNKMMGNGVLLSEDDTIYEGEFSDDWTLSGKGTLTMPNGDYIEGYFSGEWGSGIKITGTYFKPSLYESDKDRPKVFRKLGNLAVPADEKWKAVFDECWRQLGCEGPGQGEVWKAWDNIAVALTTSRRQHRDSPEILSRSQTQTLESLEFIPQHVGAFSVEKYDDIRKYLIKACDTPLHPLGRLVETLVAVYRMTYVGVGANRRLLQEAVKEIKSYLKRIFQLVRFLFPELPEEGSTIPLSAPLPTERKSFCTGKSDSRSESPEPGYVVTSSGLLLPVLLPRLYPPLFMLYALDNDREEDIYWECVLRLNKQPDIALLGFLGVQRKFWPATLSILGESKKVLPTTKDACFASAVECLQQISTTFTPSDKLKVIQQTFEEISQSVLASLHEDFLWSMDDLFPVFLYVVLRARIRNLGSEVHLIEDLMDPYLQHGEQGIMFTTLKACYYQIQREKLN
UniProt Q8N7X0: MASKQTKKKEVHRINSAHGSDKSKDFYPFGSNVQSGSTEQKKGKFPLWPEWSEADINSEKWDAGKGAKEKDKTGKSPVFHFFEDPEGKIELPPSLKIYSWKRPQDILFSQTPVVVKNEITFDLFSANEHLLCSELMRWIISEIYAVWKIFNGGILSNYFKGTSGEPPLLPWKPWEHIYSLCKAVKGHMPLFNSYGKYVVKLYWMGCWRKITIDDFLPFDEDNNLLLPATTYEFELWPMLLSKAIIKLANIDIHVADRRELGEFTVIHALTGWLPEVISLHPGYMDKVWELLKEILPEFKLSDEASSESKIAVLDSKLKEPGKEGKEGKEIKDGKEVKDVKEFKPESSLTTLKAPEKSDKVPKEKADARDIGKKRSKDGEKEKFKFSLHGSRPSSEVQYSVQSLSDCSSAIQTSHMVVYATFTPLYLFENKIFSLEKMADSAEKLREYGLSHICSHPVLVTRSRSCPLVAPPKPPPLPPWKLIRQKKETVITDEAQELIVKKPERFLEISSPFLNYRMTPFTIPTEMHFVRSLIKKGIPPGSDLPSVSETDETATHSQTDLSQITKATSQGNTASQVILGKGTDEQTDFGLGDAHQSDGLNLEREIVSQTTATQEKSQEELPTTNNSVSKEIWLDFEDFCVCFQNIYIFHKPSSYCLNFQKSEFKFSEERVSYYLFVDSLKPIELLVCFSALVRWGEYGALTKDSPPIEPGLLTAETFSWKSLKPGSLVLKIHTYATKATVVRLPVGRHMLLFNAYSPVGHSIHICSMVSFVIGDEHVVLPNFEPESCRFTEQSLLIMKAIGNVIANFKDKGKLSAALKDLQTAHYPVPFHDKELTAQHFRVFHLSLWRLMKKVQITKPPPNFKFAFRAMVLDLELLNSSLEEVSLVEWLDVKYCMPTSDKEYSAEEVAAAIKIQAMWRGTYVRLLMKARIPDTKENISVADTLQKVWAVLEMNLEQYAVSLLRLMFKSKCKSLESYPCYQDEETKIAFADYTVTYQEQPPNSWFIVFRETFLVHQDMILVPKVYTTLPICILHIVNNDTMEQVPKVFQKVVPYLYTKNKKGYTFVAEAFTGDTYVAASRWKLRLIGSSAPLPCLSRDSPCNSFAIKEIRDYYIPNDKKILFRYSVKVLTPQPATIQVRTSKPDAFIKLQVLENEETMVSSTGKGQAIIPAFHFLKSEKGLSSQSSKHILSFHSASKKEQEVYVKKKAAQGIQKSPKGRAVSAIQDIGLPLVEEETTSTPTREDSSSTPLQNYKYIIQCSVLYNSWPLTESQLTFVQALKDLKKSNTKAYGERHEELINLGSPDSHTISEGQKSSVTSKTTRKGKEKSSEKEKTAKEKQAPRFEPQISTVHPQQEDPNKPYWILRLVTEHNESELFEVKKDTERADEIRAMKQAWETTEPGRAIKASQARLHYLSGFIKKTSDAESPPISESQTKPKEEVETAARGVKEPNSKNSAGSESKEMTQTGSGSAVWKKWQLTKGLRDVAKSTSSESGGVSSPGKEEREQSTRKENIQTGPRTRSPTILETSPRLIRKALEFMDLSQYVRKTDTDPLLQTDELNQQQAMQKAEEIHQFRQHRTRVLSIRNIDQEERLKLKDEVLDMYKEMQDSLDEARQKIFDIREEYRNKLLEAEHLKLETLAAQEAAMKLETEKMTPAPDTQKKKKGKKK
UniProt Q9BT30: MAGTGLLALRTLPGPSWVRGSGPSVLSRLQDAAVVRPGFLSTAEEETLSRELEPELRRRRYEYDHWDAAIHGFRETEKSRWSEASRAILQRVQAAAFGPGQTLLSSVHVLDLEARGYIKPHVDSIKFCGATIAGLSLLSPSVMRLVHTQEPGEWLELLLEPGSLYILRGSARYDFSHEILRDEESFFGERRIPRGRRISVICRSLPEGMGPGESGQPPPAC
UniProt Q9BQI0: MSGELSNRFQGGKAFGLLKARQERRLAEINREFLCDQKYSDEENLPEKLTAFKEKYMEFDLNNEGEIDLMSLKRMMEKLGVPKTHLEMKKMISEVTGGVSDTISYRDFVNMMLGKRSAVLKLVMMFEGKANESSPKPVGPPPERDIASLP
UniProt Q13686: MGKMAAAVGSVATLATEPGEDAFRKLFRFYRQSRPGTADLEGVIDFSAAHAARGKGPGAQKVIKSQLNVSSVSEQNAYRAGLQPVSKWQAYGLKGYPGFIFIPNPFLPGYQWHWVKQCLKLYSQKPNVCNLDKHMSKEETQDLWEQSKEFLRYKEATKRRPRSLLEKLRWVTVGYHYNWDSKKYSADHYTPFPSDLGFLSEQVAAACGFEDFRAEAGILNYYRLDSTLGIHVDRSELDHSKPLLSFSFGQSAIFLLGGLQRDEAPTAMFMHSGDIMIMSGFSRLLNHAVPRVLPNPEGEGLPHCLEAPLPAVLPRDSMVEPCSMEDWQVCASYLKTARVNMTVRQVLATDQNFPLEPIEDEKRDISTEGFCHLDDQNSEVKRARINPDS
UniProt Q9NP73: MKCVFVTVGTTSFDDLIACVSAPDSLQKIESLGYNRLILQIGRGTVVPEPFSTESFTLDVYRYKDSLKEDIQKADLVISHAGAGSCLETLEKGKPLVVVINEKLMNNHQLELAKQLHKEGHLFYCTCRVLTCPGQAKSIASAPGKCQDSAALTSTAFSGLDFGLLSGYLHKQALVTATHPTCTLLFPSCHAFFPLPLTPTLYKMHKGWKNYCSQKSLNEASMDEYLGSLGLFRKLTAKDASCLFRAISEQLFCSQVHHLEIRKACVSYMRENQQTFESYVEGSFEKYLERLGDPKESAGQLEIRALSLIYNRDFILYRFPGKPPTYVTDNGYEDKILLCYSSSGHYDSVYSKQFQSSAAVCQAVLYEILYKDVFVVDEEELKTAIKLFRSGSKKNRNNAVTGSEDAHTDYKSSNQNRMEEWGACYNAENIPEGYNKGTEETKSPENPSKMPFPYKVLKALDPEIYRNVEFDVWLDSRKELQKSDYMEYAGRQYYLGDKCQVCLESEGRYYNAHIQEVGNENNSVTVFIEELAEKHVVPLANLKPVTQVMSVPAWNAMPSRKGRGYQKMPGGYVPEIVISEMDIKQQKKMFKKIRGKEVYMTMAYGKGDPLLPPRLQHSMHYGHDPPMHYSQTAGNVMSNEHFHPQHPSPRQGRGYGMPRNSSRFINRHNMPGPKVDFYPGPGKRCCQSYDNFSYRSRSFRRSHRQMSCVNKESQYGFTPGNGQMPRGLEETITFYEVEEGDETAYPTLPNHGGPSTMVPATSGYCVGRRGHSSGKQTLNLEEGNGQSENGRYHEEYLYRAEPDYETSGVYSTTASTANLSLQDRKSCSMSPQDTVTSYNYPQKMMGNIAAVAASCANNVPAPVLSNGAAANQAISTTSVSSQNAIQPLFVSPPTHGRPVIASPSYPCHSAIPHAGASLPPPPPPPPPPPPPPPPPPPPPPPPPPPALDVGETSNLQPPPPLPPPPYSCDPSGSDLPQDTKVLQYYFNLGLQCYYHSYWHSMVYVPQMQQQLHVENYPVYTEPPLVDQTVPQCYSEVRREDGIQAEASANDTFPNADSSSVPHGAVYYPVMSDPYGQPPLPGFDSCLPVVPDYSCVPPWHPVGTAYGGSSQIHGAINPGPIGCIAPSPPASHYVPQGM
UniProt Q9BS18, whole entry, looked up: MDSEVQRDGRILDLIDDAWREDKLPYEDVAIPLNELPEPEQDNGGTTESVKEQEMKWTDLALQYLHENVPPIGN

Experiments:
Test in all cases: log2 fold change, soluble protein after heating vs DMSO (PISA); higher = thermal stabilisation; K562 cells, 10 uM, 30 min; active = over 0.2 and 3.5 SD of the protein, either way, in both replicates (recomputed)
[1] = compound: NC1(c2ccc(-c3nc4ccn5c(=O)[nH]nc5c4cc3-c3ccccc3)cc2)CCC1
In short: (§1)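 For each measurement, 10 μM compound was applied for 30 min to K562 cells at 2×10^6 cells/mL. Aliquots were heated for 3 min across 48°C-58°C, pooled, and extracted in PBS with 0.5% NP-40 at 4°C; the supernatant after 21,000xg for 90 min was soluble protein. This was quantified by TMTpro 16plex LC-MS/MS with channel sums equalised, and thermal stability was reported relative to control samples from duplicates, on a log2 fold-change scale.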

[2] = compound: NCC(=O)Nc1ccc(-n2nc(C(F)(F)F)cc2-c2ccc3c(ccc4ccccc43)c2)cc1
In short: as §1

silmitasertib = compound: O=C(O)c1ccc2c(c1)nc(Nc1cccc(Cl)c1)c1ccncc12 [silmitasertib]
In short: as §1

[3] = compound: NC(=O)c1cnc(N[C@@H]2CCCC[C@@H]2N)nc1Nc1cccc(-n2nccn2)c1
In short: as §1

vorinostat = compound: O=C(CCCCCCC(=O)Nc1ccccc1)NO [vorinostat]
In short: as §1

[4] = compound: O=C1NC(=O)C(c2cnc3ccccn23)=C1c1cn2c3c(cc(F)cc13)CN(C(=O)N1CCCCC1)CC2
In short: as §1

citarinostat = compound: O=C(CCCCCCNC(=O)c1cnc(N(c2ccccc2)c2ccccc2Cl)nc1)NO [citarinostat]
In short: as §1

[5] = compound: c1cc(OCCN2CCCCC2)cc(-c2n[nH]c3ccc(-c4nnc[nH]4)cc23)c1
In short: as §1

Measured: log2 fold change

AFMID isoform 2 (UniProt Q63HM1)
inactive: [1] -0.196 | [2] -0.257 | silmitasertib 0.074

ADIPOR2 (UniProt Q86V24)
inactive: [3] -0.048 | [2] -0.026 | vorinostat -0.141

AHSP (UniProt Q9NZD4)
inactive: [1] 0.044 | silmitasertib -0.088

ALS2 (UniProt Q96Q42)
inactive: [4] 0.309

ADGB (UniProt Q8N7X0)
inactive: [1] 0.193 | vorinostat -0.326 | citarinostat -0.188 | silmitasertib -0.302 | [4] -0.669 | [5] 0.142

ALKBH7 (UniProt Q9BT30)
inactive: vorinostat 0.212

AIF1L isoform 2 (UniProt Q9BQI0)
inactive: [3] 0.186 | [1] 0.159 | [2] 0.043 | vorinostat -0.008 | citarinostat 0.064 | silmitasertib 0.011 | [4] 0.389 | [5] -0.21

ANAPC15 isoform 2 (UniProt P60006)
inactive: [3] 0.077 | [2] -0.034 | citarinostat -0.065 | [5] -0.171

ALKBH1 (UniProt Q13686)
inactive: [3] -0.193 | [2] 0.144 | vorinostat 0.038 | [4] 0.089

Reprinted at random: 2 entries already listed.
ALKBH1 (UniProt Q13686)
inactive: [3] -0.193 | [2] 0.144 | vorinostat 0.038 | [4] 0.089

ADGB (UniProt Q8N7X0)
inactive: [1] 0.193 | vorinostat -0.326 | citarinostat -0.188 | silmitasertib -0.302 | [4] -0.669 | [5] 0.142

(listing goes on)

ALG13 isoform 2 (UniProt Q9NP73)
inactive: [3] 0.077 | [1] -0.167 | [2] -0.035 | vorinostat 0.02 | silmitasertib -0.024 | [4] -0.052

ANAPC13 (UniProt Q9BS18)
inactive: [4] -0.311

ALMS1 (UniProt Q8TCU4)
inactive: vorinostat 0.111 | citarinostat -0.033 | [5] -0.428
